Source: the supplement of paper PMC6411743
± gives the standard deviation of the averaged measurements. The entries are a selection whose mix differs from that of the whole data set. Small differences around the control level are noise.

Chains of the proteins cited; added tags and fusions are not shown. Lines headed by an entry give the natural chain unless they say otherwise; changes in a name come on top.
UniProt Q96SU4: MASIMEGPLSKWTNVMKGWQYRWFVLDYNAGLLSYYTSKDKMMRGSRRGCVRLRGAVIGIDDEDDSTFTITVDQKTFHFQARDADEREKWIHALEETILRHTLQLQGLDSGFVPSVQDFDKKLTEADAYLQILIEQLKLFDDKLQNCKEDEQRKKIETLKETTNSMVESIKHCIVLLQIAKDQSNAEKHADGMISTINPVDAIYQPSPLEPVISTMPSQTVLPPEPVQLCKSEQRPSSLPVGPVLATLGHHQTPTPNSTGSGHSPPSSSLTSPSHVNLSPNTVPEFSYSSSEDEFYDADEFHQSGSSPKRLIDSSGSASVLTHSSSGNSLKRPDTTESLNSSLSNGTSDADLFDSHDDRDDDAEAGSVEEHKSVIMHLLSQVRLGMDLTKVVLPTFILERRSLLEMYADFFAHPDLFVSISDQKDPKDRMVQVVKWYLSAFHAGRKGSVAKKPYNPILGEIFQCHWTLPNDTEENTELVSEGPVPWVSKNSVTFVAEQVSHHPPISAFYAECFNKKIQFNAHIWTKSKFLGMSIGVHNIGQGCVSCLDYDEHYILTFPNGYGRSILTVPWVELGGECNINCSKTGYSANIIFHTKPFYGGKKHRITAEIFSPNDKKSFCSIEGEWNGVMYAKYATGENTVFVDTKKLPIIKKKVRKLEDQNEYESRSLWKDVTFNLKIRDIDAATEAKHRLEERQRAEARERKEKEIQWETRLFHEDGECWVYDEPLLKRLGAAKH
UniProt Q9BRF8, whole entry: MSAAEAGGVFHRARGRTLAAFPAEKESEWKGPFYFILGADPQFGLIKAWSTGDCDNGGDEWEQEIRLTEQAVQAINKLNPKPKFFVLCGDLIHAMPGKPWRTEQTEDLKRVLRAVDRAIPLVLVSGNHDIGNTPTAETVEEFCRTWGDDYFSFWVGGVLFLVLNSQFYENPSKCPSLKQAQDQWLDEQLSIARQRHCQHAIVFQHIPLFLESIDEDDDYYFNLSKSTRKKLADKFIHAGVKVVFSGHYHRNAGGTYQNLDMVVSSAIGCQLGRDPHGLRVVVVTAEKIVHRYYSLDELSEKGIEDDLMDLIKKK
UniProt Q9BV29: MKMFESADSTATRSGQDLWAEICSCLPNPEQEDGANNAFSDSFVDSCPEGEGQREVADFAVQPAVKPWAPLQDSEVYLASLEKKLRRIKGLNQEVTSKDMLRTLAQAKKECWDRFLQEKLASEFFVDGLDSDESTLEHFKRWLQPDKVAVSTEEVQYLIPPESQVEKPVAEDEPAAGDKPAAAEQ
UniProt Q99661: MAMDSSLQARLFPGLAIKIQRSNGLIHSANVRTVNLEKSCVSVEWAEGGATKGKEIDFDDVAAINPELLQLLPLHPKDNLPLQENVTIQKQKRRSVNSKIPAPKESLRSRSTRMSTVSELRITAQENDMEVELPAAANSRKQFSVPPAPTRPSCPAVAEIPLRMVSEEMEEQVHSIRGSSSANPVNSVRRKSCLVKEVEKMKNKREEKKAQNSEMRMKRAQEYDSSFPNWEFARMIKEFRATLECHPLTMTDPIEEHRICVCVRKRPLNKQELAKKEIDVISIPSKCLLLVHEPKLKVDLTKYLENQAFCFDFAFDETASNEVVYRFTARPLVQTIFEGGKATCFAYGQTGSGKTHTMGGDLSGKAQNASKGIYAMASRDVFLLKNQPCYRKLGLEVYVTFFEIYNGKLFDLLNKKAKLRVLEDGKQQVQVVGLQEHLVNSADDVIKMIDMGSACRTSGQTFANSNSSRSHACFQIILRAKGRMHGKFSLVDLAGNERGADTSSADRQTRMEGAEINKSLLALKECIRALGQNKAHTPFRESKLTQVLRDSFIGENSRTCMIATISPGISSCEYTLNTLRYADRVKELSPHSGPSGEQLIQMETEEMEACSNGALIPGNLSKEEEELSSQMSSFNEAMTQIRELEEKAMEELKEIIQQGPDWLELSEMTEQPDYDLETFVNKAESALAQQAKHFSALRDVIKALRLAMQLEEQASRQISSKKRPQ
UniProt Q9BWT6: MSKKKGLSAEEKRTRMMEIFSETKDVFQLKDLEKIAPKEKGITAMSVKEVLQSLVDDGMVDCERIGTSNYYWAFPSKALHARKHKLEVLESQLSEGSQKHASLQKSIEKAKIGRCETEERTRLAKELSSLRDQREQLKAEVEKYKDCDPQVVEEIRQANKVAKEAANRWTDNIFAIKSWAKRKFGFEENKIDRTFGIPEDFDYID
UniProt Q9BUQ8: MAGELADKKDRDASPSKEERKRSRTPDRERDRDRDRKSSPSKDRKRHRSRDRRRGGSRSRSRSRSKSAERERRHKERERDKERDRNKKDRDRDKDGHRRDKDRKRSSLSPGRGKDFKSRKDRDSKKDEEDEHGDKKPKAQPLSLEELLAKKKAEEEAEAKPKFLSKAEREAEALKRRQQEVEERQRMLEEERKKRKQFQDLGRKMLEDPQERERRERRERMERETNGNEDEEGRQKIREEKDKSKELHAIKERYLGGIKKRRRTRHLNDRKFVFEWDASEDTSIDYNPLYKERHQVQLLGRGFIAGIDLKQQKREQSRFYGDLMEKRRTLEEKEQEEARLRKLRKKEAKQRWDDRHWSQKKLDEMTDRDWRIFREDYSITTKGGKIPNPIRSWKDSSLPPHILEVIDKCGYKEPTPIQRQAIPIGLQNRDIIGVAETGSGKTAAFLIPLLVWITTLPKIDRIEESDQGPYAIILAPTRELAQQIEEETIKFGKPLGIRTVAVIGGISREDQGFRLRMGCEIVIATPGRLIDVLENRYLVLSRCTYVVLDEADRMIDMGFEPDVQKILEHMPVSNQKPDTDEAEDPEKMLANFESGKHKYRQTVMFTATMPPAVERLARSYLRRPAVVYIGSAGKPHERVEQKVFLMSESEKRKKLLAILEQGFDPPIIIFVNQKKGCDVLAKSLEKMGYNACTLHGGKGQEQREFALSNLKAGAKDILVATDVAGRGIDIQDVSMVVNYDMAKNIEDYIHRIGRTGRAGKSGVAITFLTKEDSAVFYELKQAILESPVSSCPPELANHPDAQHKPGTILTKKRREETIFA
UniProt Q9BYV9: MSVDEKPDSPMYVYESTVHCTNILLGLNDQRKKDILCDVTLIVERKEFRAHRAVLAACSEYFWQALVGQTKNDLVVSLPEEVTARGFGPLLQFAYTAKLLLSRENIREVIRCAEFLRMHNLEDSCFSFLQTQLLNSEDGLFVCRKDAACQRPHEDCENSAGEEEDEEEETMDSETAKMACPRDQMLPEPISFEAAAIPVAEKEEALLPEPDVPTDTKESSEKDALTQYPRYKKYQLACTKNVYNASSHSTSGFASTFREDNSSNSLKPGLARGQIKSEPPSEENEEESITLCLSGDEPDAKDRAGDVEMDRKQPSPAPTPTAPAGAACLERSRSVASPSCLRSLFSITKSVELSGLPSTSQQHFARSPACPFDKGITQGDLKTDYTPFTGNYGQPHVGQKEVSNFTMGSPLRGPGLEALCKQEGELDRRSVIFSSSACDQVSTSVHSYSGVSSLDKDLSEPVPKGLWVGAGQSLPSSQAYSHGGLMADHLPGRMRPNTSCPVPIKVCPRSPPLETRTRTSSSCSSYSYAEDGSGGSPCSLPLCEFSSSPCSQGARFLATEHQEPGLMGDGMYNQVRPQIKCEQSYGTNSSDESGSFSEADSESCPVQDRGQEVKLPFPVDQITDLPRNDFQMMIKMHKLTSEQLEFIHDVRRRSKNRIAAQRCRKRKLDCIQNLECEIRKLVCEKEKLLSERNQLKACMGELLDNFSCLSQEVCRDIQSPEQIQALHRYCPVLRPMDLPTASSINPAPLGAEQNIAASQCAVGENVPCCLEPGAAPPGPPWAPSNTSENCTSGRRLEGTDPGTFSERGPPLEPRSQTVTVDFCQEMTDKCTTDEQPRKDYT
UniProt Q99942: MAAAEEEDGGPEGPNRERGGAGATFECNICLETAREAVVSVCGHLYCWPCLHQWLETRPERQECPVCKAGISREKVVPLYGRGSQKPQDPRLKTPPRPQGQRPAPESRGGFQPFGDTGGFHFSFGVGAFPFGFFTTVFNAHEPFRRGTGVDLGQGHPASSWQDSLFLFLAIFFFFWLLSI
UniProt Q9BQ69: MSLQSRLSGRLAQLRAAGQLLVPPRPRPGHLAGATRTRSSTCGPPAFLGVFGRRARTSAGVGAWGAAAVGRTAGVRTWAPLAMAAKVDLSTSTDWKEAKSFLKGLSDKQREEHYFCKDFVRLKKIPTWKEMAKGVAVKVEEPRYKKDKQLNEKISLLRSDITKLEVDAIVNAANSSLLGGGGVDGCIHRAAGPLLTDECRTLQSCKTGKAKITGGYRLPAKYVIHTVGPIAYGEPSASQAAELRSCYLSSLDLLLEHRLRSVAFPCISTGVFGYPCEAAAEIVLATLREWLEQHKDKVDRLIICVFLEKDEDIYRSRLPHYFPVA
UniProt Q9BXI6: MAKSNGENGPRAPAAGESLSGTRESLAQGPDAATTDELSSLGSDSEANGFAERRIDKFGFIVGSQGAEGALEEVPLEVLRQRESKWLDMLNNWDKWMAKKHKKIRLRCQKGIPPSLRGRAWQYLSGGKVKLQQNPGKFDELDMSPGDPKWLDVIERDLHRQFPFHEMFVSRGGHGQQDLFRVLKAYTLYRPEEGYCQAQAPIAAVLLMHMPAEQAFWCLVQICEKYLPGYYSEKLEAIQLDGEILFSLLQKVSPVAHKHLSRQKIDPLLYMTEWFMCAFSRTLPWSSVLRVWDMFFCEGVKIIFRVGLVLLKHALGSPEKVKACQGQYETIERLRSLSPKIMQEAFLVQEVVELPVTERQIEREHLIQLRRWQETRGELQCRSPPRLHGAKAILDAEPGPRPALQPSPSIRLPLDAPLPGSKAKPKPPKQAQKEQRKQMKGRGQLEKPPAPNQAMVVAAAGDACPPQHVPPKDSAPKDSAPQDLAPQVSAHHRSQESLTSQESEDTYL
UniProt Q9BU76: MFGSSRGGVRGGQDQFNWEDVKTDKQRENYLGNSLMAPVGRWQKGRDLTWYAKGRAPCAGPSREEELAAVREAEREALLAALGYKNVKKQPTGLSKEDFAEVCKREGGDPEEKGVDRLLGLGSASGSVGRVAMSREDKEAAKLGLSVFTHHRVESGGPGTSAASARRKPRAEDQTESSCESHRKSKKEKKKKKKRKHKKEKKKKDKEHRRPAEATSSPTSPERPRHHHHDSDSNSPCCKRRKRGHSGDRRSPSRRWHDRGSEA
UniProt Q99986: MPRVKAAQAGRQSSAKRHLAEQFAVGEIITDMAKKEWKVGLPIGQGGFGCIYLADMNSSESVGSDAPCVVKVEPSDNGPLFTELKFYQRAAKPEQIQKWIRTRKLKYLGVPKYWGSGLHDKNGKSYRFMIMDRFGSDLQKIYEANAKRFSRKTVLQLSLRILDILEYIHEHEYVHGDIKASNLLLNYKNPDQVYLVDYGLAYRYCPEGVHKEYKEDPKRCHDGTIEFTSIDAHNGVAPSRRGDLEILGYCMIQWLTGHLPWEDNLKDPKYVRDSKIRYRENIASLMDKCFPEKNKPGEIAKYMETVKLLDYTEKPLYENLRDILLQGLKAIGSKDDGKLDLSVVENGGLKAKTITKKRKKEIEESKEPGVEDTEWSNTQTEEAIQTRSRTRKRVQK
UniProt Q96TC7: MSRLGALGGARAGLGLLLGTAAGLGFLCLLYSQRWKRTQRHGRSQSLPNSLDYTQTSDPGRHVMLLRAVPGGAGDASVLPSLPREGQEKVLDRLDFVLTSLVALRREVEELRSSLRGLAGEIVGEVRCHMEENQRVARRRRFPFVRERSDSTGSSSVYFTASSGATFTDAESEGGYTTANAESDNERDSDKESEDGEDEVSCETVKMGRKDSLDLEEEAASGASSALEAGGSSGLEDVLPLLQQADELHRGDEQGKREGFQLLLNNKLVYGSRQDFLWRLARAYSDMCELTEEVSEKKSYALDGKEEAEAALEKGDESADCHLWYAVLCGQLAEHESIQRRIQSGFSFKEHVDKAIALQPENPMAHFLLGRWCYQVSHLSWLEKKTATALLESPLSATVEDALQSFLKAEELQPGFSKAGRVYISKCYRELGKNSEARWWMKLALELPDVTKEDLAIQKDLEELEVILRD

Compound: Nc1ncnc2c1ncn2[C@@H]1O[C@H](COP(=O)(O)OP(=O)(O)NP(=O)(O)O)[C@@H](O)[C@H]1O [adenylyl imidodiphosphate]
Assay: NP40-soluble protein abundance relative to vehicle (solubility fold change) (ratio); higher = more soluble protein in presence of AMP-PNP
In short: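 Crude Jurkat lysate, prepared by Dounce homogenisation, was exposed to eight concentrations from 0.1 to 10 mM for 10 min at room temperature and then 3 min at 37 °C. Solubilisation used 0.8% NP40 with benzonase for 60 min at 4 °C, followed by ultracentrifugation and TMT labelling of the supernatant for LC-MS/MS. After vsn normalisation of intensities, each value is the fold change against the detergent-processed vehicle within each replicate, across three independent experiments.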

Target: PELO (UniProt Q9BRX2)
- NP40-soluble protein abundance (concentration: 0.1mM): 0.991 ± 0.024
- NP40-soluble protein abundance (concentration: 0.5mM): 0.956 ± 0.033

Target: AARSD1 (UniProt Q9BTE6)
- NP40-soluble protein abundance (concentration: 0.1mM): 0.977 ± 0.033
- NP40-soluble protein abundance (concentration: 0.5mM): 0.978 ± 0.04

Target: MIPEP (UniProt Q99797)
- NP40-soluble protein abundance (concentration: 0.1mM): 1.03 ± 0.035
- NP40-soluble protein abundance (concentration: 0.5mM): 0.984 ± 0.054

Target: UniProt Q9BXJ9
- NP40-soluble protein abundance (concentration: 0.1mM): 1.02 ± 0.027
- NP40-soluble protein abundance (concentration: 0.5mM): 1 ± 0.032

Target: PSMD1 (UniProt Q99460)
- NP40-soluble protein abundance (concentration: 0.1mM): 0.974 ± 0.04
- NP40-soluble protein abundance (concentration: 0.5mM): 0.952 ± 0.079

Target: UniProt Q9BT25 and related entries
- NP40-soluble protein abundance (concentration: 0.1mM): 0.995 ± 0.031
- NP40-soluble protein abundance (concentration: 0.5mM): 1.006 ± 0.01

Target: UniProt Q9BVV7
- NP40-soluble protein abundance (concentration: 0.1mM): 1.022 ± 0.0032
- NP40-soluble protein abundance (concentration: 0.5mM): 1.047 ± 0.0057

Target: UniProt Q9BUR4
- NP40-soluble protein abundance (concentration: 0.1mM): 1.01 ± 0.012
- NP40-soluble protein abundance (concentration: 0.5mM): 1 ± 0.024

Target: UniProt Q96RS0 and related entries
- NP40-soluble protein abundance (concentration: 0.1mM): 0.9645 ± 0.0035
- NP40-soluble protein abundance (concentration: 0.5mM): 0.995 ± 0.046

Target: UniProt Q96SU4 and related entries
- NP40-soluble protein abundance (concentration: 0.1mM): 1.02 ± 0.029
- NP40-soluble protein abundance (concentration: 0.5mM): 1 ± 0.028

Target: CPPED1 (UniProt Q9BRF8)
- NP40-soluble protein abundance (concentration: 0.1mM): 1.04 ± 0.011
- NP40-soluble protein abundance (concentration: 0.5mM): 0.993 ± 0.057

Target: UniProt Q9BUE6 and related entries
- NP40-soluble protein abundance (concentration: 0.1mM): 0.994 ± 0.012
- NP40-soluble protein abundance (concentration: 0.5mM): 1.01 ± 0.02

Target: RBCK1 (UniProt Q9BYM8)
- NP40-soluble protein abundance (concentration: 0.1mM): 0.9751 ± 0.0069
- NP40-soluble protein abundance (concentration: 0.5mM): 0.965 ± 0.017

Target: ADAT1 (UniProt Q9BUB4)
- NP40-soluble protein abundance (concentration: 0.1mM): 0.9875 ± 0.0082
- NP40-soluble protein abundance (concentration: 0.5mM): 1.02 ± 0.019

Target: UniProt Q96T76 and related entries
- NP40-soluble protein abundance (concentration: 0.1mM): 1.02 ± 0.034
- NP40-soluble protein abundance (concentration: 0.5mM): 1.01 ± 0.031

Target: UniProt Q9BV29 and related entries
- NP40-soluble protein abundance (concentration: 0.1mM): 0.9769 ± 0.0063
- NP40-soluble protein abundance (concentration: 0.5mM): 0.996 ± 0.018

Target: KIF2C (UniProt Q99661)
- NP40-soluble protein abundance (concentration: 0.1mM): 0.978 ± 0.013
- NP40-soluble protein abundance (concentration: 0.5mM): 1.03 ± 0.033

Target: SDF2 (UniProt Q99470)
- NP40-soluble protein abundance (concentration: 0.1mM): 0.97 ± 0.045
- NP40-soluble protein abundance (concentration: 0.5mM): 0.975 ± 0.033

Target: MND1 (UniProt Q9BWT6)
- NP40-soluble protein abundance (concentration: 0.1mM): 0.961 ± 0.033
- NP40-soluble protein abundance (concentration: 0.5mM): 0.986 ± 0.07

Target: UniProt Q9BQP7
- NP40-soluble protein abundance (concentration: 0.1mM): 0.995 ± 0.014
- NP40-soluble protein abundance (concentration: 0.5mM): 1.03 ± 0.023

Target: UniProt Q9BQ61
- NP40-soluble protein abundance (concentration: 0.1mM): 0.958 ± 0.055
- NP40-soluble protein abundance (concentration: 0.5mM): 0.985 ± 0.06

Target: ECSIT (UniProt Q9BQ95)
- NP40-soluble protein abundance (concentration: 0.1mM): 1.03 ± 0.047
- NP40-soluble protein abundance (concentration: 0.5mM): 1.03 ± 0.044

Target: UniProt Q9BZ67-2
- NP40-soluble protein abundance (concentration: 0.1mM): 0.995 ± 0.02
- NP40-soluble protein abundance (concentration: 0.5mM): 0.999 ± 0.028

Target: TIPIN (UniProt Q9BVW5)
- NP40-soluble protein abundance (concentration: 0.1mM): 0.946 ± 0.048
- NP40-soluble protein abundance (concentration: 0.5mM): 0.952 ± 0.032

Target: DDX23 (UniProt Q9BUQ8)
- NP40-soluble protein abundance (concentration: 0.1mM): 1.05 ± 0.019
- NP40-soluble protein abundance (concentration: 0.5mM): 1.02 ± 0.038

Target: SETD2 (UniProt Q9BYW2)
- NP40-soluble protein abundance (concentration: 0.1mM): 1.02 ± 0.018
- NP40-soluble protein abundance (concentration: 0.5mM): 0.995 ± 0.032

Target: OSBPL1A (UniProt Q9BXW6)
- NP40-soluble protein abundance (concentration: 0.1mM): 0.993 ± 0.022
- NP40-soluble protein abundance (concentration: 0.5mM): 1.017 ± 0.0015

Target: UniProt Q96RU2-2
- NP40-soluble protein abundance (concentration: 0.1mM): 0.981 ± 0.032
- NP40-soluble protein abundance (concentration: 0.5mM): 0.989 ± 0.02

Target: MED10 (UniProt Q9BTT4)
- NP40-soluble protein abundance (concentration: 0.1mM): 1 ± 0.0065
- NP40-soluble protein abundance (concentration: 0.5mM): 1.03 ± 0.021

Target: UniProt Q9BTE3 and related entries
- NP40-soluble protein abundance (concentration: 0.1mM): 1.01 ± 0.033
- NP40-soluble protein abundance (concentration: 0.5mM): 0.984 ± 0.031

Target: UniProt Q9BRT3
- NP40-soluble protein abundance (concentration: 0.1mM): 0.931 ± 0.032
- NP40-soluble protein abundance (concentration: 0.5mM): 0.898 ± 0.038

Target: KATNB1 (UniProt Q9BVA0)
- NP40-soluble protein abundance (concentration: 0.1mM): 1.02 ± 0.021
- NP40-soluble protein abundance (concentration: 0.5mM): 0.998 ± 0.017

Target: UniProt Q9BUV8 and related entries
- NP40-soluble protein abundance (concentration: 0.1mM): 0.988 ± 0.024
- NP40-soluble protein abundance (concentration: 0.5mM): 1.059 ± 0.0084

Target: UniProt Q9BWT3 and related entries
- NP40-soluble protein abundance (concentration: 0.1mM): 0.986 ± 0.0099
- NP40-soluble protein abundance (concentration: 0.5mM): 1.01 ± 0.029

Target: KIFC1 (UniProt Q9BW19)
- NP40-soluble protein abundance (concentration: 0.1mM): 0.991 ± 0.022
- NP40-soluble protein abundance (concentration: 0.5mM): 1.03 ± 0.058

Target: EFHD1 (UniProt Q9BUP0)
- NP40-soluble protein abundance (concentration: 0.1mM): 0.972 ± 0.058
- NP40-soluble protein abundance (concentration: 0.5mM): 0.987 ± 0.045

Target: NLN (UniProt Q9BYT8)
- NP40-soluble protein abundance (concentration: 0.1mM): 1.03 ± 0.067
- NP40-soluble protein abundance (concentration: 0.5mM): 0.985 ± 0.094

Target: SPEN (UniProt Q96T58)
- NP40-soluble protein abundance (concentration: 0.1mM): 1.01 ± 0.012
- NP40-soluble protein abundance (concentration: 0.5mM): 1.05 ± 0.043

Target: BACH2 (UniProt Q9BYV9)
- NP40-soluble protein abundance (concentration: 0.1mM): 1.01 ± 0.022
- NP40-soluble protein abundance (concentration: 0.5mM): 1.02 ± 0.055

Target: C7orf50 (UniProt Q9BRJ6)
- NP40-soluble protein abundance (concentration: 0.1mM): 1.02 ± 0.018
- NP40-soluble protein abundance (concentration: 0.5mM): 1.02 ± 0.02

Target: BCL2L13 (UniProt Q9BXK5)
- NP40-soluble protein abundance (concentration: 0.1mM): 0.96 ± 0.018
- NP40-soluble protein abundance (concentration: 0.5mM): 1 ± 0.059

Target: RNF5 (UniProt Q99942)
- NP40-soluble protein abundance (concentration: 0.1mM): 1.04 ± 0.065
- NP40-soluble protein abundance (concentration: 0.5mM): 0.999 ± 0.024

Target: UniProt Q9BTV5 and related entries
- NP40-soluble protein abundance (concentration: 0.1mM): 0.9901 ± 0.0035
- NP40-soluble protein abundance (concentration: 0.5mM): 0.988 ± 0.021

Target: PARK7 (UniProt Q99497)
- NP40-soluble protein abundance (concentration: 0.1mM): 0.9591 ± 0.0047
- NP40-soluble protein abundance (concentration: 0.5mM): 1.01 ± 0.04

Target: UniProt Q99653
- NP40-soluble protein abundance (concentration: 0.1mM): 0.984 ± 0.022
- NP40-soluble protein abundance (concentration: 0.5mM): 1 ± 0.025

Target: MACROD1 (UniProt Q9BQ69)
- NP40-soluble protein abundance (concentration: 0.1mM): 1 ± 0.052
- NP40-soluble protein abundance (concentration: 0.5mM): 1.01 ± 0.036

Target: UniProt Q9BXI6 and related entries
- NP40-soluble protein abundance (concentration: 0.1mM): 0.976 ± 0.015
- NP40-soluble protein abundance (concentration: 0.5mM): 0.9707 ± 0.0038

Target: UniProt Q9BX67
- NP40-soluble protein abundance (concentration: 0.1mM): 0.994 ± 0.029
- NP40-soluble protein abundance (concentration: 0.5mM): 1.01 ± 0.039

Target: CCT7 (UniProt Q99832)
- NP40-soluble protein abundance (concentration: 0.1mM): 0.999 ± 0.037
- NP40-soluble protein abundance (concentration: 0.5mM): 0.998 ± 0.03

Target: UniProt Q9BTY7
- NP40-soluble protein abundance (concentration: 0.1mM): 0.998 ± 0.044
- NP40-soluble protein abundance (concentration: 0.5mM): 0.979 ± 0.05

Target: UniProt Q9BSH4
- NP40-soluble protein abundance (concentration: 0.1mM): 0.985 ± 0.012
- NP40-soluble protein abundance (concentration: 0.5mM): 0.988 ± 0.027

Target: TSG101 (UniProt Q99816)
- NP40-soluble protein abundance (concentration: 0.1mM): 0.987 ± 0.016
- NP40-soluble protein abundance (concentration: 0.5mM): 1 ± 0.025

Target: UniProt Q9BU76 and related entries
- NP40-soluble protein abundance (concentration: 0.1mM): 0.998 ± 0.042
- NP40-soluble protein abundance (concentration: 0.5mM): 0.996 ± 0.032

Target: UIMC1 (UniProt Q96RL1)
- NP40-soluble protein abundance (concentration: 0.1mM): 0.992 ± 0.035
- NP40-soluble protein abundance (concentration: 0.5mM): 1.03 ± 0.012

Target: VRK1 (UniProt Q99986)
- NP40-soluble protein abundance (concentration: 0.1mM): 1.03 ± 0.018
- NP40-soluble protein abundance (concentration: 0.5mM): 1.08 ± 0.053

Target: PNKP (UniProt Q96T60)
- NP40-soluble protein abundance (concentration: 0.1mM): 1.01 ± 0.035
- NP40-soluble protein abundance (concentration: 0.5mM): 1.01 ± 0.0046

Target: UniProt Q9BVS4 and related entries
- NP40-soluble protein abundance (concentration: 0.1mM): 0.961 ± 0.024
- NP40-soluble protein abundance (concentration: 0.5mM): 0.9585 ± 0.009

Target: UniProt Q99873-3|Q99873-4
- NP40-soluble protein abundance (concentration: 0.1mM): 1.04 ± 0.086
- NP40-soluble protein abundance (concentration: 0.5mM): 0.994 ± 0.21

Target: UniProt Q9BU23 and related entries
- NP40-soluble protein abundance (concentration: 0.1mM): 0.9764 ± 0.0013
- NP40-soluble protein abundance (concentration: 0.5mM): 0.995 ± 0.039

Target: UniProt Q96TC7
- NP40-soluble protein abundance (concentration: 0.1mM): 0.976 ± 0.042
- NP40-soluble protein abundance (concentration: 0.5mM): 0.965 ± 0.036
